Laboratory results as given in publication PMC7305180.
No constants are given. Whether binding was seen depends on the method and setting. In cells and extracts the contact can be indirect. Some entries that bind do so weakly or less than the wild type.

Sequences of proteins named here, by UniProt entry; tags and fusion partners are left off.
UniProt P12814: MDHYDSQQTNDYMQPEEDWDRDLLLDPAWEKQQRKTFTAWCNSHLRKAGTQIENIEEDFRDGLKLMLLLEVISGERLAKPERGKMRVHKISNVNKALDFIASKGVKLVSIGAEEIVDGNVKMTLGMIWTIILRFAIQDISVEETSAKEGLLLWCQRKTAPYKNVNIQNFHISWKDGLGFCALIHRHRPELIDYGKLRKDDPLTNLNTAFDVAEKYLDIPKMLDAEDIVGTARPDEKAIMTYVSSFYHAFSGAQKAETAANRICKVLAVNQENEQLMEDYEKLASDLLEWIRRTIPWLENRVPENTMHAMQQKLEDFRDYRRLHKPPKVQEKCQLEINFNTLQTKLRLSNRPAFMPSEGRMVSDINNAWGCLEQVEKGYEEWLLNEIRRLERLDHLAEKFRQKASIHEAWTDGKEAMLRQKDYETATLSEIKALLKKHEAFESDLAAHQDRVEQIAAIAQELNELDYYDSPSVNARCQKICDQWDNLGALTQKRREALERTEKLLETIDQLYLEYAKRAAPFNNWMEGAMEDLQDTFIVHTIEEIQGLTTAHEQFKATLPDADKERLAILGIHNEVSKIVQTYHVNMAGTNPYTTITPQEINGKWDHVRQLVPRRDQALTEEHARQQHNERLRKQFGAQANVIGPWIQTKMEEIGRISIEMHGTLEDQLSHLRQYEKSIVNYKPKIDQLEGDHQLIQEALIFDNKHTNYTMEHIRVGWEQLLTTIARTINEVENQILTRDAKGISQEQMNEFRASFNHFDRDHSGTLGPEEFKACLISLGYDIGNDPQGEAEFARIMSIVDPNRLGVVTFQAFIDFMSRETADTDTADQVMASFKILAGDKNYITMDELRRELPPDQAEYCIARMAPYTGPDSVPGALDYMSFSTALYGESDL
UniProt O43707: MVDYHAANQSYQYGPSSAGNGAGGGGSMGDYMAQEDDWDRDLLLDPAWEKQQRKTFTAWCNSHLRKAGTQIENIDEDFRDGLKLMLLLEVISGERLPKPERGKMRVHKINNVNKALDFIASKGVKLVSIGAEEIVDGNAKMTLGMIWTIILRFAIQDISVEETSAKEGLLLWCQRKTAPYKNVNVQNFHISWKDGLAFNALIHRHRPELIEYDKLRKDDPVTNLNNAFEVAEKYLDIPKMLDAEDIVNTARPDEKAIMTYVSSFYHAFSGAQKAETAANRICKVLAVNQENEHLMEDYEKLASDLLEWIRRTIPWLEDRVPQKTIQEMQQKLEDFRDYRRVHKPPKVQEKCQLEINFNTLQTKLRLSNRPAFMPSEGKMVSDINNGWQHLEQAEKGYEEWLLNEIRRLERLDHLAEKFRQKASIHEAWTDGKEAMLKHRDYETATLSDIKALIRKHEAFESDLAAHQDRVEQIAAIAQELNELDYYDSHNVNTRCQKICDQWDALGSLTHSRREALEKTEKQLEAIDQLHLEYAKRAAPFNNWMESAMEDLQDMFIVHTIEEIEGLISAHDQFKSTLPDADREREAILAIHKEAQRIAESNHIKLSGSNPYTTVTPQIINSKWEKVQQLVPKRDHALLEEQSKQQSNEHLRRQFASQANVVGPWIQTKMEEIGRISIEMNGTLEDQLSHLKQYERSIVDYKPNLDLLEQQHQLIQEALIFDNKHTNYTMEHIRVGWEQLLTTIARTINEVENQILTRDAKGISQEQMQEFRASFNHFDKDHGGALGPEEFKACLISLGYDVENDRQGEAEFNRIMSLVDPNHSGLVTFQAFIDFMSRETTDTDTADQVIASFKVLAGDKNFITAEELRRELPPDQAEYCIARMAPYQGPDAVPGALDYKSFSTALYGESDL

Molecular target: α-Actinin 1 (human (endogenous in PC9)) (UniProt P12814)
Experiment: cross-linking; in situ formaldehyde cross-linking of intact human PC9 cells (1, 2, 3, 4.5 or 6% FA in PBS, 15 min at 37 °C), lysis, trypsin digest, SCX enrichment, cross-linked peptide pairs identified by LC-MS/MS (12 and 24 Da cross-linker masses)

In the case of α-Actinin 4 (from UniProt O43707 1-911), the binding is reported as “binds”.
